From the supplement of paper PMC10735217
Structures can show the parent of a compound that is named as a salt. This is one part of the list. This data set is noisy: repeats of one test often differ as much as different tests do.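 The human kidney-derived cells carry a stably integrated construct of eight TEAD-binding elements driving luciferase, read by luminescence in a drug-repurposing library screen. A compound counts as a hit when its signal is more than five robust Z scores above the plate mean.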

System: HEK293A TEAD-LUC reporter
Experiment: TEAD-luciferase reporter activity (YAP activation), robust Z score vs plate; higher = stronger YAP/TEAD activation
Settings: 24 h

SMILES	TEAD-luciferase reporter activity (compound concentration: 200 nM)	TEAD-luciferase reporter activity (compound concentration: 2 uM)	TEAD-luciferase reporter activity (compound concentration: 10 uM)
NC(=O)C1=CN([C@@H]2O[C@H](COP(=O)([O-])OP(=O)([O-])OC[C@H]3O[C@@H](n4cnc5c(N)ncnc54)[C@H](O)[C@@H]3O)[C@@H](O)[C@H]2O)C=CC1 [Coenzyme I]	inactive: -0.108	inactive: -0.000413	inactive: -0.0921
Cc1cc(CN2CCC(N3C(=O)CC[C@@H]3C(=O)Nc3cccc(-c4nnnn4C)c3)CC2)ccc1Cl	inactive: 0.95	inactive: -1.21	inactive: -0.924
CN(C)CCCN1c2ccccc2Sc2ccc(C(F)(F)F)cc21 [Triflupromazine hydrochloride]	active: 7.44	inactive: -0.661	inactive: 0.088
OC(CCCN1CCN(c2ncc(F)cn2)CC1)c1ccc(F)cc1 (centres undefined)	inactive: -1.54	inactive: 0.394	inactive: 0.693
CC1=Nc2ccccc2CC(c2ccccc2)N1C (centres undefined) [dazepinil]	inactive: -0.747	inactive: -1.37	inactive: -1.22
Cn1nc(CS(C)(=O)=O)nc1NCCCOc1cccc(CN2CCCCC2)c1 [Sufotidine]	inactive: -1.45	inactive: -1.25	inactive: -0.101
NC(=O)c1cnc2[nH]ccc2c1NC1[C@@H]2CC3C[C@H]1C[C@@](O)(C3)C2 (some centres undefined) [peficitinib]	inactive: -0.219	active: 11.6	inactive: 3.75
CC/C(=C(/c1ccc(OCCN(C)C)cc1)c1cccc(O)c1)c1ccccc1	inactive: -0.59	inactive: -0.41	inactive: -0.861
CC(C)CN(C)c1ccccc1CS(=O)c1nc2ccccc2[nH]1 (centres undefined) [Leminoprazole]	inactive: -0.488	inactive: -0.0788	inactive: 2.82
O=C(O)c1ccccc1OC1CN(C(c2ccccc2)c2ccccc2)C1	inactive: -2.79	inactive: 0.848	inactive: 0.33
Cc1ccc(C(=O)N2CCC(N3CCCNC3=O)CC2)cc1	inactive: -3.35		inactive: -1.45
COC1/C=C/OC2(C)Oc3c(C)c(O)c4c(O)c(cc(O)c4c3C2=O)NC(=O)/C(C)=C\C=C\C(C)C(O)C(C)C(O)C(C)C(OC(C)=O)C1C (centres undefined) [rifamycin]	inactive: -0.872	inactive: -0.596	inactive: 2.28
CC[C@@](C)(Nc1ccnc(-c2c[nH]c3ncccc23)n1)C(=O)NCC(F)(F)F [decernotinib]	inactive: -0.128	inactive: 0.119	inactive: 0.397
CC1=C(C/C=C(\C)CCC[C@H](C)CCC[C@H](C)CCCC(C)C)C(=O)c2ccccc2C1=O [Phytomenadione]	inactive: 0.27	inactive: -1.72	inactive: 0.841
CN1C(=O)N(C[C@H](C(=O)NO)[C@@H](CC2CCCC2)C(=O)N2CCCCC2)C(=O)C1(C)C [Cipemastat]	inactive: -2.82	inactive: 0.442	inactive: 1.71
CC(=O)NCC(=O)N1Cc2ccccc2CC2(CCCCN2CC2CCNCC2)C1 (centres undefined)	inactive: -1.88		inactive: 0.283
CC(C)OC(=O)COC/C=C\C[C@@H]1[C@@H](CC[C@@H](O)C2CCCCC2)[C@H](O)C[C@H]1Cl	inactive: 0.849	inactive: -1.18	inactive: 0.648
CC(C)COc1ccc(CNC(=O)N(Cc2ccc(F)cc2)C2CCN(C)CC2)cc1 [pimavanserin tartrate]	inactive: -0.0438	inactive: 0.0167	inactive: -0.723
CC(=O)N[C@H]1CSSC[C@@H](C(=O)O)NC(=O)[C@H](CC(=O)[O-])NC(=O)CNC(=O)[C@H](Cc2ccc(C[NH3+])cc2)NC(=O)[C@H]2N(CSC2(C)C)C(=O)[C@H](CC(N)=O)NC1=O	inactive: -0.117	inactive: -0.965	inactive: 2.44
Cc1cccc(C(=O)NC2N=NN=N2)n1	inactive: -0.64	inactive: -0.461	inactive: -0.475
Nc1nc2c(cnn2CCCc2ccc(O)cc2)c2nc(-c3ccco3)nn12	inactive: -0.85	inactive: 0.348	inactive: 0.188
COc1ccc(/C=C/CCCCOc2ccc(C(=O)c3cccc(C(=O)O)c3)cc2CCC(=O)O)cc1	inactive: -1.78	inactive: -1.15	inactive: -0.444
c1ccc(-c2cc(-n3cc(Cn4ccnc4)c4ccccc43)on2)cc1	inactive: -0.113	inactive: 0.0318	inactive: 4.58
O=C(O)CCC(=O)c1ccc(C2CCCCC2)c(Cl)c1	inactive: -1.53	inactive: -1.81	inactive: 0.505
NS(=O)(=O)NCCNc1nonc1/C(=N/O)Nc1ccc(F)c(Br)c1	inactive: 0.374	inactive: 1.62	inactive: -1.47
CN(C)CCC(=O)N1Cc2ccccc2CC2(CCCN2C)C1 (centres undefined)	inactive: -1.28		inactive: -1.63
CC1(C)Oc2cc(NS(C)(=O)=O)ccc2N(c2ccc(F)cc2)C1=O [Aparare]	inactive: -1.45		inactive: -0.85
COc1cc2c(cc1OC)C1CN(C)CCC1N=C2c1ccc(NS(=O)(=O)c2ccc(C)cc2)cc1 (centres undefined) [Tolafentrine]	inactive: -1.46	inactive: -0.711	inactive: 2.37

Three consecutive entries out of the list so far, for reference:
SMILES	TEAD-luciferase reporter activity (compound concentration: 200 nM)	TEAD-luciferase reporter activity (compound concentration: 2 uM)	TEAD-luciferase reporter activity (compound concentration: 10 uM)
Cn1nc(CS(C)(=O)=O)nc1NCCCOc1cccc(CN2CCCCC2)c1 [Sufotidine]	inactive: -1.45	inactive: -1.25	inactive: -0.101
NC(=O)c1cnc2[nH]ccc2c1NC1[C@@H]2CC3C[C@H]1C[C@@](O)(C3)C2 (some centres undefined) [peficitinib]	inactive: -0.219	active: 11.6	inactive: 3.75
CC/C(=C(/c1ccc(OCCN(C)C)cc1)c1cccc(O)c1)c1ccccc1	inactive: -0.59	inactive: -0.41	inactive: -0.861

Later entries.

SMILES	TEAD-luciferase reporter activity (compound concentration: 200 nM)	TEAD-luciferase reporter activity (compound concentration: 2 uM)	TEAD-luciferase reporter activity (compound concentration: 10 uM)
OC1CCN(CCCN2c3ccccc3Sc3ccc(C(F)(F)F)cc32)C1 (centres undefined)	inactive: 1.3	inactive: -0.736	inactive: 0.638
CCC(=O)c1c(O)cc(O)cc1O	inactive: -1.1	inactive: 0.484	inactive: 0.497
O=C(O)CCNC(=O)c1ccccc1 [Betamipron]	inactive: -0.667	inactive: -1.28	inactive: -0.763
COc1c(N2C[C@@H](C)C[C@H](N)C2)ccc2c(=O)c(C(=O)O)cn(C3CC3)c12 [Nemonoxacin]	inactive: -1.15	inactive: 0.177	inactive: -1.93
O=C1Nc2ccc(Cl)cc2[C@](C#CC2CC2)(C(F)(F)F)N1	inactive: 0.924	inactive: 0.0316	inactive: 3.82
COCCCOc1ccnc(CS(=O)c2nc3ccccc3[nH]2)c1C (centres undefined)	active: 5.62		inactive: 1.05
COCCCOc1ccnc(CS(=O)c2nc3ccccc3[nH]2)c1C (centres undefined) [Rabeprazole sodium]		inactive: -1.04	
COc1ccc([C@@H]2COc3cc(OC)ccc3C2=O)cc1	inactive: -0.93	inactive: -0.434	inactive: 0.687
CC(=O)OCC1=C(C(=O)O)N2C(=O)[C@@H](NC(=O)Cc3cccs3)[C@H]2SC1 [Cefalotin sodium]	inactive: -1.08	inactive: 1.64	inactive: -1.84
C=C1[C@H](CO)[C@@H](O)C[C@@H]1n1cnc2c(O)nc(N)nc21 [entecavir]		inactive: -0.511	
C=C1[C@H](CO)[C@@H](O)C[C@@H]1n1cnc2c(O)nc(N)nc21 [Entecavir hydrate]	inactive: -1.2		inactive: -1.8
N=C(N)NCC1CCC(C(=O)Oc2ccccc2C(=O)OCc2ccccc2)CC1 (centres undefined)	inactive: -0.373	inactive: 0.279	inactive: 0.669
O=C(O)c1cc(O)ccc1O	inactive: 0.0219	inactive: -0.0902	inactive: 0.0409
O=C(c1cc(Br)cn2ccnc12)N1CCC(N2CCCCCC2=O)CC1	inactive: -0.555		inactive: 1.33
NC(=O)c1cnc(N[C@@H]2CCCC[C@@H]2N)nc1Nc1cccc(-n2nccn2)c1	inactive: 2.9	active: 7.99	inactive: 1.11
COCCCN1CC[C@@H](CNC(=O)c2cc(Cl)c(N)c3c2OCC3)[C@@H](O)C1	inactive: -0.727	inactive: 0.314	inactive: -1
Cc1c(CC(=O)O)c2ccccc2n1C(=O)c1ccccc1 [Delmetacin]	inactive: -0.705	inactive: 0.419	inactive: -1.09
Fc1cc(F)cc(Cn2ccnc2S)c1	inactive: -0.544	inactive: -1.24	inactive: -0.539
Cc1onc(-c2c(F)cccc2Cl)c1C(=O)N[C@@H]1C(=O)N2[C@@H]1SC(C)(C)[C@@H]2C(=O)[O-]	inactive: -0.887	inactive: -0.663	inactive: -1.19
Cn1c(=O)c2ncn(CC(=O)Nc3nc(-c4ccc(Cl)cc4)cs3)c2n(C)c1=O	inactive: 0.244	inactive: -1.26	inactive: 3.55
Cc1cn(CC#CCN2CCCC2=O)cn1	inactive: -0.788	inactive: -0.043	inactive: 3.75
O=C(O)[C@H](Cc1ccc(Nc2nccc3ccncc23)cc1)NC1=C(Br)C(=O)C12CCCCC2	inactive: 0.777	inactive: -0.194	inactive: -0.055
COCCCNC(=O)c1ccnc(C(=O)NCCCOC)c1 [Safironil]	inactive: -1.94	inactive: -1.05	active: 5.29
CCN(CC)CCOc1ccc(N(C)C(=O)c2ccc(-c3ccc(C(F)(F)F)cc3)cc2)cc1OC	inactive: -1.62	inactive: -1.48	inactive: 0.0269
Nc1nc(N)c(-c2ccccc2)s1	inactive: -0.895	inactive: -1.78	inactive: 3.37
O=C(CC1(c2ccccc2)C2CC3CC(C2)CC1C3)NCC(O)CO (centres undefined)	inactive: -0.253	inactive: -1.57	inactive: 1.67
O=C(O)CCCCCCCOc1nc(-c2ccccc2)c(-c2ccccc2)n1-c1ccccc1	inactive: 1.05	inactive: 0.437	inactive: -1.17
